PubChem BioAssay AID504808, Drosophila RNAi Screening Center – 2011
Purpose: 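Chromatin factors that keep E2F targets switched off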 (primary screen). Cell system: Drosophila S2 cells. Reagents: long dsRNA against Drosophila genes. Measured: 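Firefly luciferase driven by E2F sites, normalised to Renilla luciferase on the same minimal promoter, measured by plate reader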. Scale: E2F firefly: higher = more E2F reporter activity; Renilla normaliser: higher = more normaliser reporter signal. Active means: 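a knock-down counted as active when the firefly/Renilla E2F signal rose above 50%, a threshold chosen arbitrarily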.
The screen tested about 21,000 reagents; this is an unselected part of those that have a named target and a result. In the full data, 18 (0.084%) were called active. 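Raw counts without plate normalisation, one of two replicates; the ratio scores behind the calls were not deposited.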 A number with no mark means an inactive call. The numbers tell different reagents against one gene apart. A plus sign joins genes that one reagent is predicted to hit. Reagent sequences are not shown. Not given: the amount of reagent, the time to read-out.

| Gene | reagent | E2F firefly, rep 1 | Renilla normaliser, rep 1 |
| --- | --- | --- | --- |
| ppan (peter pan) | 1 | 1.01e5 | 6353 |
| qkr58E-1 (quaking related 58E-1) | 1 | 85563 | 3825 |
| CG8483 | 1 | 74466 | 3830 |
| Cpr62Bc (Cuticular protein 62Bc) | 1 | 97516 | 4202 |
| eEFSec | 1 | 1.08e5 | 4779 |
| CG13058 | 1 | 1.70e5 | 6967 |
| twit (target of wit) | 1 | 71020 | 3110 |
| CG8420 | 1 | 1.26e5 | 5211 |
| hry (hairy) | 1 | 55902 | 3211 |
| CG13312 | 1 | 94473 | 3912 |
| CG7215 + Prx5 | 1 | 1.50e5 | 8079 |
| CG7215 + Prx5 | 2 | 85918 | 5556 |
| plu (plutonium) | 1 | 1.49e5 | 5006 |
| CG15515 | 1 | 1.31e5 | 7494 |
| CG31174 | 1 | 79859 | 2279 |
| exex (extra-extra) | 1 | 86631 | 3722 |
| Dtd (D-aminoacyl-tRNA deacylase) | 1 | 1.27e5 | 5641 |
| cwo (clockwork orange) | 1 | 94916 | 6226 |
| CG12951 | 1 | 1.33e5 | 6649 |
| loco (locomotion defects) | 1 | 1.02e5 | 5774 |
| loco (locomotion defects) | 2 | 78215 | 3718 |
| Vap33 (VAMP-associated protein 33kDa) | 1 | 1914 | 892 |
| scaf6 (SR-related CTD associated factor 6) | 1 | 73075 | 3387 |
| scaf6 (SR-related CTD associated factor 6) | 2 | 1.79e5 | 6792 |
| scaf6 (SR-related CTD associated factor 6) | 3 | 1.31e5 | 5198 |
| lectin-46Cb | 1 | 1.40e5 | 4469 |
| CG32091 | 1 | 1.25e5 | 7773 |
| CG32091 | 2 | 1.22e5 | 6878 |
| Pig1 (Pre-intermoult gene 1) | 1 | 1.04e5 | 5830 |
| CG14984 | 1 | 99372 | 4060 |
| CG12490 | 1 | 1.00e5 | 4514 |
| CG10597 | 1 | 2.36e5 | 6248 |
| stwl (stonewall) | 1 | 65578 | 3225 |
| CG7296 | 1 | 80669 | 3130 |

Just “E2F firefly, rep 1” (6 entries from above):
CG12951: 1.33e5
loco (locomotion defects) #1: 1.02e5
loco (locomotion defects) #2: 78215
Vap33 (VAMP-associated protein 33kDa): 1914
scaf6 (SR-related CTD associated factor 6) #1: 73075
scaf6 (SR-related CTD associated factor 6) #2: 1.79e5

The list goes on.
| Gene | reagent | E2F firefly, rep 1 | Renilla normaliser, rep 1 |
| --- | --- | --- | --- |
| CG14563 | 1 | 1.35e5 | 6844 |
| aqz (aaquetzalli) | 1 | 1.19e5 | 7298 |
| dnk (deoxyribonucleoside kinase) | 1 | 1.05e5 | 6603 |
| CG31327 | 1 | 86069 | 2344 |
| Acyp (Acylphosphatase) | 1 | 95169 | 3994 |
| Mps1 (Monopolar spindle 1) | 1 | 66357 | 4562 |
| CG30484 | 1 | 1.21e5 | 4602 |
| Awh (Arrowhead) | 1 | 1.03e5 | 4844 |
| CG13010 | 1 | 1.38e5 | 6876 |
| CG3819 | 1 | 1.23e5 | 5682 |
| wgn (wengen) | 1 | 1.19e5 | 5167 |
| CG14186 | 1 | 93052 | 3644 |
| CG17190 | 1 | 1.35e5 | 6645 |
| drk (downstream of receptor kinase) | 1 | 139 | 29 |
| parvin | 1 | 1.53e5 | 6712 |
| CG14834 | 1 | 94901 | 3901 |
| Ets97D (Ets at 97D) | 1 | 1.26e5 | 6304 |
| CG5199 | 1 | 1.53e5 | 7289 |
| iotaTry (iotaTrypsin) | 1 | 89088 | 4136 |
| CG10700 | 1 | 96511 | 4365 |
| Tie (Tie-like receptor tyrosine kinase) | 1 | 1.10e5 | 3825 |
| Tie (Tie-like receptor tyrosine kinase) | 2 | 99407 | 4391 |
| CG10654 | 1 | 1.13e5 | 4403 |
